# ± gives the standard deviation of the averaged measurements. The list shows a part of the results.
# Chains of the proteins cited; added tags and fusions are not shown. Lines headed by an entry give the natural chain unless they say otherwise; changes in a name come on top.
# UniProt Q8TB03: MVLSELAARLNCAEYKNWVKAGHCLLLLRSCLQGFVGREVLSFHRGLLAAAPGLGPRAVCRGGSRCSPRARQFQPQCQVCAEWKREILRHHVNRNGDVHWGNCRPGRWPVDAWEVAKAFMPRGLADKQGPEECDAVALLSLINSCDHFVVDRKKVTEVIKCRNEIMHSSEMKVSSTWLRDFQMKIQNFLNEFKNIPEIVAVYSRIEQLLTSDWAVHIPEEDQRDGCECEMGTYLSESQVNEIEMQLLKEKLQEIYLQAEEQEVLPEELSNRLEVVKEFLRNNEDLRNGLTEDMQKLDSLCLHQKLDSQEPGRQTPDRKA
# UniProt Q8N5G2: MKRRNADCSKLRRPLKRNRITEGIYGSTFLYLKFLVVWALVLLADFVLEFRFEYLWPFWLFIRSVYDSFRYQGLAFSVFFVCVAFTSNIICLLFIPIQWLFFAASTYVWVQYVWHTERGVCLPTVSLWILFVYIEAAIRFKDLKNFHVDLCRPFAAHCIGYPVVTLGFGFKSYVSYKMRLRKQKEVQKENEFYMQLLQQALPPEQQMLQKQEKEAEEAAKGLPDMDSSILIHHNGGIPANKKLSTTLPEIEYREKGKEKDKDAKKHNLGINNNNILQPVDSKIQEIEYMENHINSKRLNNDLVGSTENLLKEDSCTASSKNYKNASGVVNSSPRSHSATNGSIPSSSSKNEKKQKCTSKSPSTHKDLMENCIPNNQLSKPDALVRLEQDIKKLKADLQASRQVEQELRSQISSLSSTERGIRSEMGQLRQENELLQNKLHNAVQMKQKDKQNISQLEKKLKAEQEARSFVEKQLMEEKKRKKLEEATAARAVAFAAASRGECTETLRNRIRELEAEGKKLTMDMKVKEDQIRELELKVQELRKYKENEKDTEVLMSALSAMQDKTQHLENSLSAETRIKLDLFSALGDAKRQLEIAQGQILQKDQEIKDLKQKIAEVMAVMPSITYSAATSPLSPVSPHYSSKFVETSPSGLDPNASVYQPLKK
# UniProt Q8NCC3: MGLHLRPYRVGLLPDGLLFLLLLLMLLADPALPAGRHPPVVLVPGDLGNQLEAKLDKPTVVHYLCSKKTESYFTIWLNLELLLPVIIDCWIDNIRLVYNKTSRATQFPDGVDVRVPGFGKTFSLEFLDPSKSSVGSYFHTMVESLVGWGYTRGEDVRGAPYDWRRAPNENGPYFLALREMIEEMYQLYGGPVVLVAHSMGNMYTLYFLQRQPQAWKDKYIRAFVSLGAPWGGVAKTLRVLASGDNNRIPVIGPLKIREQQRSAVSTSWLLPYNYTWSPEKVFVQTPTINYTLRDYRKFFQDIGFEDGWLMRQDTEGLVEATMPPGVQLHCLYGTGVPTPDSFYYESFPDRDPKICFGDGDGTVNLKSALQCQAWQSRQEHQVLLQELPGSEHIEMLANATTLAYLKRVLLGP
# UniProt Q8IY37: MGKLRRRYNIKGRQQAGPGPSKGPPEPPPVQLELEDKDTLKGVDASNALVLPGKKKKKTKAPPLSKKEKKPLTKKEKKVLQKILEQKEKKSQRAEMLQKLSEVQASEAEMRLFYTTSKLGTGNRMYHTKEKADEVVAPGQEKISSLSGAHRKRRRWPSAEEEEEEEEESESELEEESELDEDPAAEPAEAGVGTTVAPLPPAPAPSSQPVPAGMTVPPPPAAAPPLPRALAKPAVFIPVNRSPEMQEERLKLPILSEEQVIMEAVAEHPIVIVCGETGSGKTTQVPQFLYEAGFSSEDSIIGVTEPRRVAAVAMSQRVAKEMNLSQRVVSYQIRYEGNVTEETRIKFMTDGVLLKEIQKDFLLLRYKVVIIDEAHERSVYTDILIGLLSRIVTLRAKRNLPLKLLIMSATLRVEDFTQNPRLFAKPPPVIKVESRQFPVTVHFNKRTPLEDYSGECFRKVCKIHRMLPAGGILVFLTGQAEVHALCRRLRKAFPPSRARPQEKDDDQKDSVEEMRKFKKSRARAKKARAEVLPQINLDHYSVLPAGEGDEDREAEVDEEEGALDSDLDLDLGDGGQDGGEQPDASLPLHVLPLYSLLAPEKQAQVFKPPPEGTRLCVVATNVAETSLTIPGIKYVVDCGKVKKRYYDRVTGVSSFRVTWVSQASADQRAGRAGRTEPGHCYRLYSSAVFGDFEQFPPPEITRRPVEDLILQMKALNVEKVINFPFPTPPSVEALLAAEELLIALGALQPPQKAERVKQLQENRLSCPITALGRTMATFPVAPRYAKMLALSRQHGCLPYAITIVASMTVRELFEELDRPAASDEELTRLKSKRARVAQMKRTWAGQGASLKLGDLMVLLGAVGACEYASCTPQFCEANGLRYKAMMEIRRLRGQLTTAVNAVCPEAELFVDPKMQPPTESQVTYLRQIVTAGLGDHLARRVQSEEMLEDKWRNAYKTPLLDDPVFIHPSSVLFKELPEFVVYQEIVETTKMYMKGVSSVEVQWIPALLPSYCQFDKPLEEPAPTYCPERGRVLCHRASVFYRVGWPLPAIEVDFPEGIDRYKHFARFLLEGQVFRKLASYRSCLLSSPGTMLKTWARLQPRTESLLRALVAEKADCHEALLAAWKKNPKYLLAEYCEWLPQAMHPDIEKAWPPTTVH
# UniProt Q8NAV1: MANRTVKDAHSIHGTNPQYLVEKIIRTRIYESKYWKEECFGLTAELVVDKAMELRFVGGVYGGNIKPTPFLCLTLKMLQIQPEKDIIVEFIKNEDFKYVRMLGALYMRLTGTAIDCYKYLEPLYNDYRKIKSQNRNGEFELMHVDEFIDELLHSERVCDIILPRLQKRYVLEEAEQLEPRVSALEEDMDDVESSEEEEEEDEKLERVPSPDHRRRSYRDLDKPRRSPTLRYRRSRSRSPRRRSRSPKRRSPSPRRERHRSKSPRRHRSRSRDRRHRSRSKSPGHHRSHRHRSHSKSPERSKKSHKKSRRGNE
# UniProt Q8NHH9: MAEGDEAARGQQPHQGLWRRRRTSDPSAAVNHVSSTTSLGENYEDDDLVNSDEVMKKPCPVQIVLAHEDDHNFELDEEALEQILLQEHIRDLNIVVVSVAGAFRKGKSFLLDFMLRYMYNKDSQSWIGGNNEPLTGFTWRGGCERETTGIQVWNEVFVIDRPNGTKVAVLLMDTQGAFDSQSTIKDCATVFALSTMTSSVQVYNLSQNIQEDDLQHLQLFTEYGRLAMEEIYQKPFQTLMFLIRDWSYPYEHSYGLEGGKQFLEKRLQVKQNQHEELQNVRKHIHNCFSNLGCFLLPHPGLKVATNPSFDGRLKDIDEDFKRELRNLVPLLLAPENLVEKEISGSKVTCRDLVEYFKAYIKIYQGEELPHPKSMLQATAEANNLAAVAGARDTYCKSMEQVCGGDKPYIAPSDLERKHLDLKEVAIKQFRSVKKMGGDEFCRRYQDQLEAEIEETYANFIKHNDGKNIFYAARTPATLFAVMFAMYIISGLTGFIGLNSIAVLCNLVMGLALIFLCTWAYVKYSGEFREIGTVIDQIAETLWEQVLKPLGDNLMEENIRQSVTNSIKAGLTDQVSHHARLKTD
# UniProt Q8N806: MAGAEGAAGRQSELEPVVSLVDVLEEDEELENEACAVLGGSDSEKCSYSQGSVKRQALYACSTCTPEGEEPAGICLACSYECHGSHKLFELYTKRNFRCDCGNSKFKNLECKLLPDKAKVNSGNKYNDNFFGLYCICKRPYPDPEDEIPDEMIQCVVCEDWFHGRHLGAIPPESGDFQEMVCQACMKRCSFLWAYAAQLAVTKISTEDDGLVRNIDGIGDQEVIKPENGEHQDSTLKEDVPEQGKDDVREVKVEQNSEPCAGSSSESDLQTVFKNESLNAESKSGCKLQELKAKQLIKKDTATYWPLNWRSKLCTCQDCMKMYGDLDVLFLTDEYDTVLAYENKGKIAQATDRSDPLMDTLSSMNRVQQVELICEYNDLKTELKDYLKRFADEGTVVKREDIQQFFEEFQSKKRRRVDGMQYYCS
# UniProt Q8IXB1: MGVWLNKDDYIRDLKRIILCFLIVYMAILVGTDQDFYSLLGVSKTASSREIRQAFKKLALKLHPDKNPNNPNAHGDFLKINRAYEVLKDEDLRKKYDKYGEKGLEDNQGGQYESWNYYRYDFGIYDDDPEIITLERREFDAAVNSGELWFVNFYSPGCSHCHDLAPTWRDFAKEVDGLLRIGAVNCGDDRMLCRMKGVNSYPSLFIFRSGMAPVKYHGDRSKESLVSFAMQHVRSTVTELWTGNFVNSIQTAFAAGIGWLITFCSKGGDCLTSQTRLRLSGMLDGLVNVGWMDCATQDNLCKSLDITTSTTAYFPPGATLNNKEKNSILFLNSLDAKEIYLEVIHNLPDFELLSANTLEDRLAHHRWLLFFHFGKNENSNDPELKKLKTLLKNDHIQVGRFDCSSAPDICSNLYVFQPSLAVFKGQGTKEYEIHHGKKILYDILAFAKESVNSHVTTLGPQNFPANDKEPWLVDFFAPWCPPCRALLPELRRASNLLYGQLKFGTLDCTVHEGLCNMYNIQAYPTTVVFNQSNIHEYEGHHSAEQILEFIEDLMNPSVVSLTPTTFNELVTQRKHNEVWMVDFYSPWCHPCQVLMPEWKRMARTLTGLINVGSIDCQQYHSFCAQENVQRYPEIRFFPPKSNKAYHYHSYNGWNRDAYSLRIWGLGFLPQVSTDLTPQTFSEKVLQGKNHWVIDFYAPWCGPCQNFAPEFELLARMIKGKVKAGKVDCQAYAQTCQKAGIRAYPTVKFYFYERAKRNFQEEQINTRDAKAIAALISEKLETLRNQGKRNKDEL
# UniProt Q8N0X7: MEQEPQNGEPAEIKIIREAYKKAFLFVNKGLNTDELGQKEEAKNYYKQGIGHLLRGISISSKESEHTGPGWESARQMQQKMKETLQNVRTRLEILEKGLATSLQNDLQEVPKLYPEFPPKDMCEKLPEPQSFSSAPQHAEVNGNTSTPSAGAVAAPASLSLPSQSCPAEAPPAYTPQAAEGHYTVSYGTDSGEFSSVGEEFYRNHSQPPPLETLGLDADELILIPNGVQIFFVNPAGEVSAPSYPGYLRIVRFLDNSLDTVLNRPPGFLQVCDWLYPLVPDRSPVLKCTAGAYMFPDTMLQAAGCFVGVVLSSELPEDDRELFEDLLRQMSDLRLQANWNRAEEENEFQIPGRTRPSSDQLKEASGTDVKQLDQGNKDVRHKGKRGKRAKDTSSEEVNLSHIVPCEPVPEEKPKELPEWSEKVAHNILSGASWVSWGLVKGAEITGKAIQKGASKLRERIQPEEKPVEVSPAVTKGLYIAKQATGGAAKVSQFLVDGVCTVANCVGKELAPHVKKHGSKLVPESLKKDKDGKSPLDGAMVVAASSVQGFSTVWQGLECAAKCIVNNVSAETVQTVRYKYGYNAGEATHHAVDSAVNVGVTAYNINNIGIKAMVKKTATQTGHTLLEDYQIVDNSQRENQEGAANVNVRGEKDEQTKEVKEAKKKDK
# UniProt Q8TEA1: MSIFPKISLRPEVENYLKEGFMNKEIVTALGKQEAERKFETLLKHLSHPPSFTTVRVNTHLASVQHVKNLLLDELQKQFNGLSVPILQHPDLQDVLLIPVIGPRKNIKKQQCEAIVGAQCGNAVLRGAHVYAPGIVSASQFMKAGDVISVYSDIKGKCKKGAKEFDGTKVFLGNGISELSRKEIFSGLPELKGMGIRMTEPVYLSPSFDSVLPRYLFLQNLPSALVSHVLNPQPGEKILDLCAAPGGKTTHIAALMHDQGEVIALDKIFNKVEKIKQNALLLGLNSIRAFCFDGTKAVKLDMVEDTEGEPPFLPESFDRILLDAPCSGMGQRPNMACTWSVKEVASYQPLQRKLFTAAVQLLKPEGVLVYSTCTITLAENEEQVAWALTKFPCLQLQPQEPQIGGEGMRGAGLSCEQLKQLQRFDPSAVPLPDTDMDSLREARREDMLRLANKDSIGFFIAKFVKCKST
# Compound: Nc1nc2c(ncn2[C@@H]2O[C@H](COP(=O)(O)OP(=O)(O)OP(=O)(O)O)[C@@H](O)[C@H]2O)c(=O)[nH]1 [guanosine triphosphate]
# Assay: NP40-soluble protein abundance relative to vehicle (solubility fold change) (ratio); higher = more soluble protein in presence of GTP
# Summary of the method: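 Data come from three independent experiments in which Dounce-homogenised Jurkat crude lysate was treated at eight concentrations from 0.1 to 10 mM. Treatment ran 10 min at room temperature and then 3 min at 37 °C, after which 0.8% NP40 and benzonase were added for 60 min at 4 °C before ultracentrifugation. The supernatant underwent TMT labelling and LC-MS/MS, and vsn-normalised intensities were expressed as fold change against the detergent-processed vehicle in each replicate.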
Target,NP40-soluble protein abundance (concentration: 0.1mM),NP40-soluble protein abundance (concentration: 0.5mM),NP40-soluble protein abundance (concentration: 1mM),NP40-soluble protein abundance (concentration: 2mM),NP40-soluble protein abundance (concentration: 4mM),NP40-soluble protein abundance (concentration: 6mM),NP40-soluble protein abundance (concentration: 8mM),NP40-soluble protein abundance (concentration: 10mM)
CXorf38 (UniProt Q8TB03),0.941 ± 0.071,0.897 ± 0.028,0.895 ± 0.021,0.858 ± 0.021,0.865 ± 0.035,0.833 ± 0.01,0.8 ± 0.079,0.813 ± 0.051
UniProt Q8N1K5 and related entries,1.06 ± 0.017,1.07 ± 0.037,0.984 ± 0.04,0.983 ± 0.043,0.953 ± 0.043,0.936 ± 0.034,0.921 ± 0.061,0.884 ± 0.1
UniProt Q86X76-2|Q86X76 and related entries,1.08 ± 0.052,1.05 ± 0.056,0.961 ± 0.012,0.978 ± 0.044,0.946 ± 0.034,0.94 ± 0.037,0.932 ± 0.053,0.902 ± 0.064
RASAL3 (UniProt Q86YV0),1.03 ± 0.033,1.05 ± 0.037,1.07 ± 0.032,1.11 ± 0.038,1.13 ± 0.056,1.12 ± 0.056,1.14 ± 0.093,1.16 ± 0.093
UniProt Q8N5G2,1.07 ± 0.1,1.03 ± 0.089,1.12 ± 0.15,1.3 ± 0.057,1.26 ± 0.24,1.16 ± 0.17,1.24 ± 0.21,1.43 ± 0.25
PLA2G15 (UniProt Q8NCC3),0.969 ± 0.083,0.968 ± 0.077,0.965 ± 0.033,0.948 ± 0.11,0.959 ± 0.066,0.925 ± 0.08,0.948 ± 0.044,0.959 ± 0.09
UniProt Q8N9N5 and related entries,1.04 ± 0.012,1.01 ± 0.037,0.974 ± 0.025,0.968 ± 0.021,0.966 ± 0.057,0.97 ± 0.02,0.964 ± 0.022,0.952 ± 0.032
UBASH3B (UniProt Q8TF42),1.07 ± 0.065,1.06 ± 0.077,0.974 ± 0.033,0.986 ± 0.091,1.01 ± 0.049,0.948 ± 0.069,0.957 ± 0.055,0.929 ± 0.083
DHX37 (UniProt Q8IY37),1.056 ± 0.0078,1.15 ± 0.043,1.14 ± 0.063,1.19 ± 0.098,1.28 ± 0.088,1.26 ± 0.13,1.44 ± 0.24,1.48 ± 0.2
UniProt Q8TF01,1.15 ± 0.015,1.132 ± 0.0065,1.23 ± 0.031,1.11 ± 0.03,1.18 ± 0.018,1.09 ± 0.12,1.17 ± 0.062,1.07 ± 0.084
PRPF38A (UniProt Q8NAV1),0.933 ± 0.018,0.938 ± 0.049,1.03 ± 0.056,0.953 ± 0.018,0.96 ± 0.046,0.974 ± 0.059,0.95 ± 0.068,0.954 ± 0.055
SETD7 (UniProt Q8WTS6),0.925 ± 0.054,0.952 ± 0.059,0.931 ± 0.081,0.866 ± 0.084,0.877 ± 0.1,0.887 ± 0.076,0.861 ± 0.077,0.856 ± 0.096
UniProt Q8TEA7 and related entries,1.06 ± 0.13,1.07 ± 0.15,0.861 ± 0.12,0.968 ± 0.094,0.916 ± 0.088,0.913 ± 0.084,0.817 ± 0.081,0.833 ± 0.038
RNF168 (UniProt Q8IYW5),0.969 ± 0.084,0.926 ± 0.065,1.02 ± 0.11,1.04 ± 0.17,1.03 ± 0.16,1.07 ± 0.11,1.14 ± 0.081,1.11 ± 0.12
UniProt Q8NHH9 and related entries,1.05 ± 0.09,1.03 ± 0.099,0.994 ± 0.062,1.03 ± 0.1,0.97 ± 0.069,0.953 ± 0.065,0.968 ± 0.057,0.991 ± 0.057
UniProt Q8IYJ3 and related entries,1.05 ± 0.041,1.02 ± 0.021,1.02 ± 0.07,1.03 ± 0.071,1.01 ± 0.13,1.04 ± 0.12,1.06 ± 0.19,1.06 ± 0.19
Q86WV7 and related entries (UniProt Q96MW1),0.875 ± 0.052,0.837 ± 0.048,1.04 ± 0.054,1 ± 0.067,0.989 ± 0.036,0.997 ± 0.11,0.942 ± 0.12,1.02 ± 0.051
SHCBP1 (UniProt Q8NEM2),1.02 ± 0.054,1.04 ± 0.051,1.02 ± 0.05,1 ± 0.075,1.03 ± 0.065,0.99 ± 0.071,0.976 ± 0.059,0.947 ± 0.046
SUPV3L1 (UniProt Q8IYB8),1.09 ± 0.021,1.09 ± 0.079,0.99 ± 0.027,0.98 ± 0.01,0.997 ± 0.033,0.973 ± 0.026,0.99 ± 0.029,0.92 ± 0.051
UniProt Q8IUH3 and related entries,0.9734 ± 0.0039,1.02 ± 0.038,1.01 ± 0.048,1.05 ± 0.039,1.06 ± 0.028,1.06 ± 0.072,1.09 ± 0.098,1.08 ± 0.079
UBR7 (UniProt Q8N806),0.951 ± 0.035,0.949 ± 0.035,0.927 ± 0.053,0.905 ± 0.076,0.895 ± 0.064,0.878 ± 0.068,0.89 ± 0.045,0.884 ± 0.094
UniProt Q8IXB1 and related entries,1.17 ± 0.21,1.06 ± 0.11,1.08 ± 0.1,1.17 ± 0.15,1.1 ± 0.11,1.11 ± 0.16,1.1 ± 0.11,1.06 ± 0.084
UniProt Q8N0X7,0.993 ± 0.023,1.02 ± 0.046,0.987 ± 0.027,0.983 ± 0.053,0.931 ± 0.05,0.979 ± 0.051,0.971 ± 0.024,1.01 ± 0.032
UniProt Q8IYE0 and related entries,0.918 ± 0.095,0.971 ± 0.051,0.985 ± 0.015,0.945 ± 0.15,0.878 ± 0.19,0.944 ± 0.21,0.93 ± 0.19,0.954 ± 0.14
NSUN6 (UniProt Q8TEA1),1 ± 0.039,1.01 ± 0.025,0.922 ± 0.03,0.931 ± 0.033,0.906 ± 0.052,0.911 ± 0.035,0.901 ± 0.069,0.893 ± 0.071
CCDC25 (UniProt Q86WR0),0.954 ± 0.079,0.939 ± 0.057,0.892 ± 0.051,0.842 ± 0.071,0.855 ± 0.1,0.842 ± 0.084,0.876 ± 0.059,0.863 ± 0.068
UniProt Q8N108 and related entries,0.97 ± 0.062,0.942 ± 0.044,0.986 ± 0.042,0.948 ± 0.068,0.989 ± 0.097,0.954 ± 0.071,1 ± 0.032,1 ± 0.046
UniProt Q8IUX7,1.09 ± 0.12,1.14 ± 0.15,1.16 ± 0.21,1.19 ± 0.11,1.095 ± 0.002,1.11 ± 0.12,1.15 ± 0.1,1.16 ± 0.12
